# Measured values reported in PubChem BioAssay AID2685 (National Center for Advancing Translational Sciences (NCATS), 2010).
# The other results are listed elsewhere or left out. Further columns of the screen follow, without active or inactive calls. The list favours compounds with an active or inconclusive main result. Potencies come from curve fits of mixed quality, noted in brackets.
# Test: qHTS Assay for Lipid Storage Modulators in Drosophila S3 Cells;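 on cell number change: cells counted by Cell Tracker Red CMTPX staining in the red channel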
# Details: BODIPY lipid droplet fluorescence, 18-24 h; for cell number change: measured here: cell count max response, cells fed with added oleic acid
# Procedure, shortened: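 Drosophila S3 cells got compounds at several concentrations plus oleic acid (400 uM solution). Laser-scanning cytometry with 488 nm excitation read lipid droplets at 500-530 nm and cells at 575-640 nm. Percent activity was relative to 20 uM Triacsin C.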
# [1] = measured here: lipid fluorescence (Fed channel) AC50, cells fed with added oleic acid
# [2] = measured here: cell number channel AC50, cells fed with added oleic acid
smiles,measurement,setting,value
O=C(CSc1nnc2ccccn12)Nc1ccc2c(c1)OCO2,cell number change,,6.84%
same,AC50,[1],"29.1 µM [rising, single point]"
COc1ccc(CN(C)CC(=O)N2CCc3ccccc3C2)cc1,cell number change,,-0.451%
Cn1nnc2cc(C(=O)NCc3ccco3)ccc21,cell number change,,0.0475%
same,AC50,[1],"1.64 µM [falling, partial curve]"
CC(NC(=O)CSc1nc2c(c(C(F)(F)F)n1)CCc1ccccc1-2)c1ccccc1 (stereo not drawn),cell number change,,-12%
same,AC50,[1],"29.1 µM [falling, single point]"
COc1cccc(C(=O)N2CCN(Cc3ccco3)CC2)c1OC,cell number change,,10.5%
same,AC50,[2],"2.06 µM [falling, partial curve]"
same,AC50,[1],"6.51 µM [falling, single point]"
COc1ccc(CCNC(=O)c2ccc(CS(=O)Cc3ccc(C)cc3)o2)cc1OC (stereo not drawn),AC50,[1],"6.51 µM [falling, single point]"
Cc1ccc(S(=O)(=O)N2CCN(C(=O)CC(C)n3nc(C)c(Cl)c3C)CC2)cc1 (stereo not drawn),cell number change,,5.65%
O=C(CSc1nnc(-c2ccccc2)c(-c2ccccc2)n1)N1CCOCC1,cell number change,,47%
same,AC50,[2],"3.26 µM [rising, partial curve]"
same,AC50,[1],"2.31 µM [rising, partial curve]"
Cc1ccc(CN2CCNC(=O)C2CC(=O)NCc2csc(C(C)C)n2)cc1 (stereo not drawn),cell number change,,25.2%
same,AC50,[1],"8.2 µM [rising, partial curve, poor fit]"
CC1CCN(C(=O)Cn2nnc(-c3ccc(N)cc3)n2)CC1,cell number change,,-14.3%
same,AC50,[1],"6.51 µM [rising, single point]"
CCc1ccc([C@@H]2CC=C(C(=O)O)[C@H](c3ccccc3)N2S(=O)(=O)c2ccc(C)cc2)cc1,cell number change,,18%
same,AC50,[1],"3.26 µM [rising, partial curve]"
COc1ccc(C(=O)N/N=C/c2c(C)[nH]c(=O)[nH]c2=O)cc1,cell number change,,-5.15%
same,AC50,[2],"0.103 µM [falling, full curve, poor fit]"
N#CC(C#N)=C1C(=O)N(CCN2CCCCC2)c2ccccc21,cell number change,,14.7%
same,AC50,[1],"6.51 µM [falling, single point]"
Cc1ccc(Cl)cc1NC(=O)c1cc2ccccc2cc1O,cell number change,,-58.9%
same,AC50,[2],"16.4 µM [falling, single point]"
same,AC50,[1],"14.6 µM [falling, partial curve]"
CCc1cc(=O)oc2cc(OCC(=O)NC3CC(C)(C)NC(C)(C)C3)ccc12,AC50,[1],"29.1 µM [rising, single point]"
COC(=O)c1cccc(NC(=O)CN2CCN(Cc3ccccc3)CC2)c1,cell number change,,7.19%
same,AC50,[1],"29.1 µM [rising, single point]"
CC(C)c1cccc(C(C)C)c1NC(=O)CCN1C(=O)NC2(CCCC2)C1=O,cell number change,,10.9%
same,AC50,[2],"1.03 µM [rising, full curve, poor fit]"
same,AC50,[1],"6.51 µM [rising, single point]"
COc1ccc(CCN2CN(S(=O)(=O)c3ccccc3)c3nc4ccccc4nc32)cc1OC,cell number change,,-0.427%
same,AC50,[1],"0.366 µM [rising, full curve, poor fit]"
O=C(Cn1ncc2c1-c1ccccc1OC2)N1CCN(Cc2ccccc2)CC1,cell number change,,23.2%
same,AC50,[1],"6.51 µM [rising, partial curve, poor fit]"
COc1ccc(N2C(=O)C(Cl)=C(Nc3ccccc3O)C2=O)cc1,cell number change,,20%
same,AC50,[1],"0.13 µM [falling, full curve, poor fit]"
CC1C(C#N)=C(N)OC2=C1C(=O)CC(C)(C)C2 (stereo not drawn),cell number change,,11.4%
same,AC50,[2],"0.13 µM [rising, full curve, poor fit]"
CN1CCN(C(=O)N2c3ccccc3C=Cc3ccccc32)CC1,cell number change,,3.77%
same,AC50,[1],"0.326 µM [rising, partial curve, poor fit]"
COc1cc2nc(-c3ccc(Br)o3)oc(=O)c2cc1OC,cell number change,,-28.8%
same,AC50,[1],"0.116 µM [rising, single point]"
Cc1ccc(-n2nc(CN3CCOCC3)c(-c3ccccc3)c2N)cc1Cl,cell number change,,20.2%
same,AC50,[1],"0.058 µM [rising, full curve, poor fit]"
Cc1cccnc1NC(=O)CSc1ncnc2sc(C)c(C)c12,cell number change,,29.7%
CSCc1nc2scc(-c3ccccc3)c2c(=O)[nH]1,cell number change,,87.3%
same,AC50,[2],"29.1 µM [rising, single point]"
same,AC50,[1],"29.1 µM [rising, single point]"
O=C(NCc1ccccc1)OCCN1CCN(Cc2ccccc2)CCC1=O,cell number change,,-35.6%
same,AC50,[2],"16.4 µM [falling, single point]"
same,AC50,[1],"18.4 µM [falling, partial curve]"
Cn1c(NCc2ccccc2)nc2c1c(=O)n(Cc1ccccc1)c(=O)n2C,AC50,[1],"2.91 µM [rising, partial curve]"
COc1ccc(OCC(=O)NCCC2=CCCCC2)c([N+](=O)[O-])c1,cell number change,,35.7%
same,AC50,[2],"25.9 µM [rising, single point]"
N#Cc1ccccc1S(=O)(=O)N1CCN(CC(O)c2ccccc2)CC1 (stereo not drawn),cell number change,,-8.65%
same,AC50,[1],"0.651 µM [falling, full curve, poor fit]"
CC(=O)Nc1ccc2c(c1)nc(CN1CCCC1)n2C,cell number change,,30.1%
CC1CCN(CC(=O)Nc2ccccc2Sc2ccccc2)CC1,cell number change,,-36.4%
same,AC50,[2],"32.6 µM [falling, single point]"
same,AC50,[1],"16.4 µM [falling, partial curve, poor fit]"
CC1CC1c1ccc(/C=C(\C#N)C(=O)Nc2cc(Cl)ccc2Cl)o1 (stereo not drawn),cell number change,,3.47%
same,AC50,[1],"0.00461 µM [rising, full curve, poor fit]"
COc1cccc(NC(=O)NCc2c(-c3ccccc3)noc2C)c1,cell number change,,-38%
same,AC50,[2],"29.1 µM [falling, single point]"
same,AC50,[1],"32.6 µM [falling, single point]"
CSc1ccc(S(=O)(=O)NCC(=O)OC(C)C(=O)NCc2ccccc2)cc1[N+](=O)[O-] (stereo not drawn),cell number change,,-17%
same,AC50,[1],"29.1 µM [falling, single point]"
O=C(NNC(=O)c1cccs1)c1ccc(F)cc1,cell number change,,1.25%
O=C(C1CCCO1)N1CCN(c2c3c(nc4cc(-c5ccc(F)cc5)nn24)CCC3)CC1 (stereo not drawn),cell number change,,10.6%
same,AC50,[1],"4.11 µM [rising, single point]"
O=C(CN(C(=O)CCC(=O)Nc1nccs1)c1cccc(F)c1)NCCc1ccccc1,cell number change,,235%
same,AC50,[2],"29.1 µM [rising, single point]"
CC(=O)Nc1ccc(S(=O)(=O)n2cnc3cc(C)c(C)cc32)cc1,cell number change,,-36.8%
same,AC50,[2],"16.4 µM [falling, single point]"
NC(=O)C1CCN(C(=O)COc2ccc3c4c(c(=O)oc3c2)CCCC4)CC1,cell number change,,22%
same,AC50,[1],"4.61 µM [rising, full curve]"
O=C(CNc1cc(S(=O)(=O)N2CCOCC2)ccc1N1CCCC1)NCc1ccco1,cell number change,,5.68%
Cc1ccccc1NC(=O)CSc1nnnn1C,cell number change,,15.8%
same,AC50,[1],"2.06 µM [rising, full curve]"
Cc1ccc(N=Nc2c(=O)[nH]n3c(=O)cc(C)[nH]c23)cc1,cell number change,,27.6%
same,AC50,[1],"29.1 µM [rising, single point]"
O=C(NCc1ccco1)C1CCN(C(=O)c2cc3sccc3n2Cc2ccc(Cl)cc2)CC1,cell number change,,-56.9%
same,AC50,[2],"29.1 µM [falling, single point]"
same,AC50,[1],"16.4 µM [falling, partial curve]"
COc1cnc(SCc2c(Cl)cccc2Cl)nc1Cl,cell number change,,28.2%
same,AC50,[1],"32.6 µM [falling, single point]"
COCCn1nnnc1C(c1ccc(OC)cc1)N1CCC(C)CC1 (stereo not drawn),cell number change,,18.2%
O=C(O)c1cccc(S(=O)(=O)N2CCN(S(=O)(=O)c3ccc4ccccc4c3)CC2)c1,cell number change,,-14%
NNC(=O)c1ccc(OCC2CC(c3ccc(Cl)cc3)=NO2)cc1 (stereo not drawn),cell number change,,6.93%
O=C(/C=C/NCc1cccnc1)C(F)(F)C(F)(F)F,cell number change,,29.5%
same,AC50,[2],"6.51 µM [rising, partial curve, poor fit]"
same,AC50,[1],"6.51 µM [rising, partial curve, poor fit]"
CC1=Nn2c(nnc2-c2ccccc2F)SC1,cell number change,,0.0661%
same,AC50,[1],"0.651 µM [falling, full curve, poor fit]"
Cn1c(=O)c2c(SCC(=O)NCCc3ccccc3)nc(C3CC3)nc2n(C)c1=O,cell number change,,16.3%
same,AC50,[2],"0.00651 µM [rising, full curve, poor fit]"
CCc1cccc(OCCn2nc(C(=O)O)c3ccccc3c2=O)c1,cell number change,,12.7%
O=C(C1CCCN1S(=O)(=O)c1ccc(Br)cc1)N1CCOCC1 (stereo not drawn),cell number change,,30.6%
same,AC50,[2],"29.1 µM [rising, single point]"
same,AC50,[1],"29.1 µM [rising, single point]"
CC(C(=O)N1CCN(C)CC1)N1C(=O)c2ccccc2C1=O (stereo not drawn),cell number change,,-23.6%
same,AC50,[2],"2.31 µM [falling, full curve, poor fit]"
same,AC50,[1],"9.2 µM [falling, partial curve]"
CC(=O)c1ccc(N2C(=O)C3C4C=CC(CC4)C3C2=O)cc1 (stereo not drawn),cell number change,,10.8%
CN(c1ccc(C(=O)Nc2ccc(Cl)cn2)cc1)S(=O)(=O)c1ccccc1,cell number change,,-1.54%
same,AC50,[1],"0.651 µM [falling, full curve, poor fit]"
c1ccc(C2=Nn3c(nnc3-c3cc(-c4ccccc4)n[nH]3)SC2)cc1,cell number change,,-30.6%
same,AC50,[2],"32.6 µM [falling, single point]"
Cc1csc(=O)n1CC(=O)OCC(=O)NCc1ccc(F)cc1,cell number change,,4.58%
COc1ccccc1NC(=O)CNS(=O)(=O)c1ccccc1,AC50,[2],"2.91 µM [rising, partial curve]"
same,AC50,[1],"0.58 µM [falling, single point]"
O=C(O)c1ccccc1C(=O)Nc1ccc(Br)c2cccnc12,cell number change,,109%
same,AC50,[2],"23.1 µM [rising, single point]"
same,AC50,[1],"29.1 µM [rising, single point]"

# 4 records drawn at random from the list so far, as already listed:
smiles,measurement,setting,value
COC(=O)c1cccc(NC(=O)CN2CCN(Cc3ccccc3)CC2)c1,AC50,[1],"29.1 µM [rising, single point]"
COc1cccc(C(=O)N2CCN(Cc3ccco3)CC2)c1OC,AC50,[2],"2.06 µM [falling, partial curve]"
COc1ccc(N2C(=O)C(Cl)=C(Nc3ccccc3O)C2=O)cc1,cell number change,,20%
CN1CCN(C(=O)N2c3ccccc3C=Cc3ccccc32)CC1,cell number change,,3.77%

# Rewritten with tabs: entries from further up.
smiles	measurement	setting	value
Cc1ccc(Cl)cc1NC(=O)c1cc2ccccc2cc1O	AC50	[2]	16.4 µM [falling, single point]
CC1C(C#N)=C(N)OC2=C1C(=O)CC(C)(C)C2 (stereo not drawn)	cell number change		11.4%
O=C(O)c1ccccc1C(=O)Nc1ccc(Br)c2cccnc12	AC50	[1]	29.1 µM [rising, single point]
